Data: patent US20230242674A1
No constants are given. Whether binding was seen depends on the method and setting. Some binding calls cover weakened binding; strength is not graded here.

Sequences of proteins named here, by UniProt entry; tags and fusion partners are left off. A change or cut given only in a name is not applied to a line headed by its entry.
UniProt Q6ZQW0: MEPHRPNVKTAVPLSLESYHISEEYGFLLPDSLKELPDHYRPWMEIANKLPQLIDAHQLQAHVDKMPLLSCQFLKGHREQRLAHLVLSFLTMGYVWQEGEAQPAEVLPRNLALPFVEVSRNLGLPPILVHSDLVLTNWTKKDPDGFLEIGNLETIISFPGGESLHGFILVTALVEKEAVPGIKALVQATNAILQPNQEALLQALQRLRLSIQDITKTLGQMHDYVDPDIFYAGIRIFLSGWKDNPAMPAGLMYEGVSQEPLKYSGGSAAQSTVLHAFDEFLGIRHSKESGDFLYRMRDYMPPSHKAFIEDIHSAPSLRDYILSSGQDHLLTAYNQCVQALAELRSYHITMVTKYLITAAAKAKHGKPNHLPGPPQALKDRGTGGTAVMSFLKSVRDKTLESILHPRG
UniProt Q8R0V5: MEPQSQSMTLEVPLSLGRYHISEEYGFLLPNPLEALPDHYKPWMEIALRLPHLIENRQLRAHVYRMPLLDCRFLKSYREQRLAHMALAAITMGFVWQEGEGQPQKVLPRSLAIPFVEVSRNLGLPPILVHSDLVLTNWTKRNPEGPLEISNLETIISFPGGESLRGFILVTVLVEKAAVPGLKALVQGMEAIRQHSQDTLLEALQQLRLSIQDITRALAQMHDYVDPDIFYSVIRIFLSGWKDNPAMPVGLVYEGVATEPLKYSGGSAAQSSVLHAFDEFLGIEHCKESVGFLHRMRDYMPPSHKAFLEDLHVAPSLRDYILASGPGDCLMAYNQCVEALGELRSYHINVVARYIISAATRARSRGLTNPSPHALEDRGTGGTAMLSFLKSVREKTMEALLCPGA

Experiments:
[1] = molecular target: recombinant human IDO2 protein (human) (UniProt Q6ZQW0); assay: direct ELISA, plate coated with 100 ng recombinant human IDO2, anti-mouse IgG Fc-HRP detection
[2] = molecular target: T1, murine IDO2 epitope peptide (amino acids 331-351 of murine IDO2) (mouse); assay: competitive ELISA, soluble mouse epitope peptide competes with coated recombinant human IDO2
T1 sequence (peptide): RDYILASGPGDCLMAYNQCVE

[3] = molecular target: recombinant human IDO2 protein (human) (UniProt Q6ZQW0); assay: competitive ELISA, plate coated with recombinant human IDO2, soluble peptide competitor
[4] = molecular target: recombinant human IDO2 protein (human) (UniProt Q6ZQW0); assay: ELISA; plate coated with 100 ng recombinant human IDO2; detection with anti-mouse IgG Fc-specific HRP and ABTS
[5] = molecular target: mouse IDO2 with V5 tag, expressed in T-REx cells (mouse) (UniProt Q8R0V5); assay: Western blot of T-REx cell extracts; HRP secondary antibody, chemiluminescence
[6] = molecular target: anti-human IDO2 monoclonal antibody 20-10; assay: competitive ELISA; soluble peptide titrated against 1 µg/ml mAb in solution; competitor: coated recombinant human IDO2 (100 ng); plate-bound mAb detected with anti-mouse IgG Fc HRP and ABTS
[7] = molecular target: anti-human IDO2 monoclonal antibody 13-3; assay: as above
[8] = molecular target: anti-human IDO2 monoclonal antibody 18-1; assay: as above
[9] = molecular target: human IDO2 with V5 tag, expressed in T-REx cells (human) (UniProt Q6ZQW0); assay: Western blot of T-REx cell extracts; HRP secondary antibody, chemiluminescence

Measured: binding

B1: anti-human IDO2 monoclonal antibody 13-3 (antibody, V domains shown)
VH: QVRLQQPGAELVKPGASVKLSCKASGYTFTSYWMHWVKQRPGQGLEWIGEINPSTGRTNYNERFRSKATLTVDKFSTTAYMQFSSLTSEDSAVYYCVGLRFAYWGQGTLVSVSA
VL: DVVMTQTPLSLPVSFGDQVSISCRSSQSLADSYGNTYLSWYLHKPGQSPQLLIYGISNRFSGVPDRFSGSGSGTDFTLKISTIKPEDLGMYYCLQGTHQPLTFGAGTKLELKR
binds: [1] | [2] | [3] | [4] | [5]

RDYILSSGQDHLLTAYNQCVQ [Human Epitope]
binds: [6] | [7] | [8]

RDYILASGPGDCLMAYNQCVE [murine IDO2 epitope peptide (amino acids 331-351 of murine IDO2)]
binds: [6] | [7] | [8]

B2: anti-human IDO2 monoclonal antibody 18-1 (antibody, V domains shown)
VH: QVRLQQPGAELVKPGASVKLSCKASGYTFTSYWMHWVKQRPGQGLEWIGEINPSTGRTNYNERFRSKATLTVDKFSTTAYMQFSSLTSEDSAVYYCVGLRFAYWGQGTLVSVSA
VL: DVVMTQTPLSLPVSFGDQVSISCRSSQSLADSYGNTYLSWYLHKPGQSPQLLIYGISNRFSGVPDRFSGSGSGTDFTLKISTIKPEDLGMYYCLQGTHQPLTFGAGTKLELKR
binds: [2] | [5]

B3: anti-human IDO2 monoclonal antibody 20-10 (antibody, V domains shown)
VH: QVRLQQPGAELVKPGASVKLSCKASGYTFTSYWMHWVKQRPGQGLEWIGEINPSTGRTNYNERFRSKATLTVDKFSTTAYMQFSSLTSEDSAVYYCVGLRFAYWGQGTLVSVSA
VL: DVVMTQTPLSLPVSFGDQVSISCRSSQSLADSYGNTYLSWYLHKPGQSPQLLIYGISNRFSGVPDRFSGSGSGTDFTLKISTIKPEDLGMYYCLQGTHQPLTFGAGTKLELKR
not listed: [6] | [7] | [8]
binds: all other assays above
